Data reported in patent US20060052293A1.
No constants are given. Whether binding was seen depends on the method and setting. Some entries that bind do so weakly or less than the wild type. Tags and fused reporters may be left off the sequences shown.

Legend:
[1] = target: Sos-FOXC2 hybrid protein (human full-length FOXC2, amino acids 1-501, fused to hSos from the pSos vector) (human) (UniProt Q07889); assay: SRS (CytoTrap) yeast two-hybrid, compared with the MafB-MafB interaction
[2] = target: Sos-FOXC2 hybrid protein (human full-length FOXC2, amino acids 1-501, fused to hSos from the pSos vector) (human) (UniProt Q07889); assay: SRS (CytoTrap) yeast two-hybrid; interaction strength relative to the MafB-MafB interaction (++++)
[3] = target: Sos-FOXC2 hybrid protein (human full-length FOXC2, amino acids 1-501, fused to hSos from the pSos vector) (human) (UniProt Q07889); assay: SRS (CytoTrap) yeast two-hybrid screen

Row | binding [1] | binding [2] | binding [3] | Binder
1 | binds | binds |  | AES1-2/Groucho (prey clones, fused to the src myristylation signal of pMyr) (protein) MMFPQSRHSGSSHLPQQLKFTTSDSCDRITDEFQLLQAQYHSLKLECDKLASEKSEMQRHYVMYYEMSYGLNIEMHKQAEIVKRLNGICAQVLPYLSQEHQQQVLGAIERAKQVTAPELNSIIRQQLQAHQLSQLQALALPLTPLPVGLQPPSLPAVSAGTGLLSLSALGSQAHLSKEDKNGHDGDTHQEDDGEKSD
2 | binds | binds | binds | p621 (prey clone, fused to the src myristylation signal of pMyr) (protein) PSEKNEFSRRKRSKSEDMDNVQSKRRRYMEEEYEAEFQVKITAKGDINQKLQKVIQWLLEEKLCALQCAVFDKTLAELKTRVEKIECNKRHKTVLTELQAKIARLTKRFEAAKEDLKKRHEHPPNPPVSPGKTVNDVNSNNNMSYRNAGTVRQMLESKRNVSESAPPSFQTPVNTVSSTNLVTPPAVVSSQPKLQTPVTSGSLTATSVLPAPNTATVVATTQVPSGNPQPTISLQPLPVILHVPVAVSSQPQLLQSHPGTLVTNQPSGNVEFISVQSPPTVSGLTKNPVSLPSLPNPTKPNNVPSVPSPSIQRNPTASAAPLGTTLAVQAVPTAHSIVQATRTSLPTVGPSGLYSPSTNRGPIQMKIPISAFSTSSAAEQNSNTTPRIENQTNKTIDASVSKKAADSTSQCGKATGSDSSGVIDLTMDDEESGASQDPKKLNHTPVSTMSSSQPVSRPLQPIQPAPPLQPSGVPTSGPSQTTIHLLPTAPTTVNVTHRPVTQVTTRLPVPRAPA
3 | binds | binds |  | FTP3 (Heterogeneous Nuclear Ribonucleoprotein-H'; prey clone D348-A449, fused to the src myristylation signal of pMyr) (protein) DKANMQHRYVELFLNSTAGTSGGAYDHSYVELFLNSTAGASGGAYGSQMMGGMGLSNQSSYGGPASQQLSGGYGGGYGGQSSMSGYDQVLQENSSDYQSNLA
